Values from PubChem BioAssay AID504744 (Drosophila RNAi Screening Center, 2011).
Screen: 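Uncover factors, including feedback loops, that control dAkt activation in fly cells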 (primary screen). Cell system: Drosophila Kc167 cells. Knock-down reagent: long dsRNA against Drosophila genes, 250 ng dsRNA per well of a 384-well plate. Duration: 3 days of knock-down, then overnight serum-free starvation before stimulation. Conditions: bovine insulin at 387 nM for 10 minutes after 12 h without serum. Detection: 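Per-well phospho-dAkt level from an in-cell fluorescent antibody stain, divided by a DNA-dye signal; log2 residuals turned into z-scores that take cell number into account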. Active means: 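Hit in the insulin screen when the two-replicate mean z-score is more extreme than plus or minus 2.5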.
The screen tested about 23,000 reagents; this is a random part of those with a known target gene and a result. Over the whole deposit, 98 (0.43%) were called active. 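Only hit calls are given; the phospho-dAkt signals, z-scores and hit direction were not deposited.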 The numbers tell different reagents against one gene apart. Names joined by + are all predicted targets of the reagent.

target | reagent no. | activity call
CG12081 | 1 | inactive
Rnmt | 1 | inactive
CG9578 | 1 | inactive
Lamtor2 + CG30120 | 1 | inactive
Lamtor2 + CG30120 | 2 | inactive
CG5968 | 1 | inactive
CG10208 | 1 | inactive
Sems | 1 | inactive
cno | 1 | inactive
cno | 2 | inactive
Jheh3 | 1 | inactive
Nubpl | 1 | inactive
Ir67b | 1 | inactive

Look-ups from above:
Entry for CG12081 in “activity call”: inactive
Value for cno #2 under “activity call”: inactive
